Source: article PMC6978394
These are yes or no findings as the source states them, for the method shown. Binding seen in cells or lysates may run through a third protein. Some binding calls cover weakened binding; strength is not graded here.

Chains of the proteins cited; added tags and fusions are not shown.
UniProt Q6QI06: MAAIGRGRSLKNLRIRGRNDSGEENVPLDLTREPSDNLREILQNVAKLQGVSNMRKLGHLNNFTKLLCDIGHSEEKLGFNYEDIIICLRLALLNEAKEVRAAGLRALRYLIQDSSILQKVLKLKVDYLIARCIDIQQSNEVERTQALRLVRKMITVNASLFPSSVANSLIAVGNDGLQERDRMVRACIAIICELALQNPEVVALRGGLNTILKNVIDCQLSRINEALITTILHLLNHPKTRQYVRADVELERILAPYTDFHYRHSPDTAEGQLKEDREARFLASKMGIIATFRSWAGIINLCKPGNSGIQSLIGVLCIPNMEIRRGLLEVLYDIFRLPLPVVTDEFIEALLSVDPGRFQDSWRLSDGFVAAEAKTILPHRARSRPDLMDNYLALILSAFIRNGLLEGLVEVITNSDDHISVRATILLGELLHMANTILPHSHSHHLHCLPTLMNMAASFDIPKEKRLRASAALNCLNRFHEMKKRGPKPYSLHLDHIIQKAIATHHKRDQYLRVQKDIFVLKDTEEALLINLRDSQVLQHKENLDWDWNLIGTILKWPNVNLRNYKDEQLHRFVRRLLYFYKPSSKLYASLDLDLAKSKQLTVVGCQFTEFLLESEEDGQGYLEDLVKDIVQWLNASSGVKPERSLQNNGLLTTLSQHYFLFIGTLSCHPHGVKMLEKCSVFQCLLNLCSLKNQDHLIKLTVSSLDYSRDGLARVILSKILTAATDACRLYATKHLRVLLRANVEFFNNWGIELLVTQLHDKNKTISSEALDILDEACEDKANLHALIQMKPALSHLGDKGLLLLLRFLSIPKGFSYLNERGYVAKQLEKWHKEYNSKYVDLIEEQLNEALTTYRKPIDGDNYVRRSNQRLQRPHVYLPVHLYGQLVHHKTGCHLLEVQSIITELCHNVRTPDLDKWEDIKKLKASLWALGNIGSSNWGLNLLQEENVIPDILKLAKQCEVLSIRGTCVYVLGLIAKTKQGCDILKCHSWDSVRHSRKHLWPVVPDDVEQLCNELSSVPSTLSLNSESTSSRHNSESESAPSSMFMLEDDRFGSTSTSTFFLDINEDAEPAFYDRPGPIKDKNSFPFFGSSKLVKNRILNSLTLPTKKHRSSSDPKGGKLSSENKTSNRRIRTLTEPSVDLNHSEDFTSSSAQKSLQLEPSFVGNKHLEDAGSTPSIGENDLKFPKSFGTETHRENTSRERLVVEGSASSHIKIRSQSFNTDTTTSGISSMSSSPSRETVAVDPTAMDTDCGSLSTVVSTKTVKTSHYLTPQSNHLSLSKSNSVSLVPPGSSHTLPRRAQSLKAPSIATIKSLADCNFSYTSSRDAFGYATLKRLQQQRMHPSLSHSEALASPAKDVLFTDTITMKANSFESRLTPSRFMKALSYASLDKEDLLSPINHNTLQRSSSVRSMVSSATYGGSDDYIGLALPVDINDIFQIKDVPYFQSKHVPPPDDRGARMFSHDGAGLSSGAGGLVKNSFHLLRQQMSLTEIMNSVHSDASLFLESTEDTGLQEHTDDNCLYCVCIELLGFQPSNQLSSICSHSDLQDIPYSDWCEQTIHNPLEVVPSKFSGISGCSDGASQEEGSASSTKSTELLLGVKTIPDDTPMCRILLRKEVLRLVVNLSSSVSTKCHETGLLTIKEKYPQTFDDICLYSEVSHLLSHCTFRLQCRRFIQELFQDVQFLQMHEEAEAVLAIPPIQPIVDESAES
UniProt Q8K4Q0: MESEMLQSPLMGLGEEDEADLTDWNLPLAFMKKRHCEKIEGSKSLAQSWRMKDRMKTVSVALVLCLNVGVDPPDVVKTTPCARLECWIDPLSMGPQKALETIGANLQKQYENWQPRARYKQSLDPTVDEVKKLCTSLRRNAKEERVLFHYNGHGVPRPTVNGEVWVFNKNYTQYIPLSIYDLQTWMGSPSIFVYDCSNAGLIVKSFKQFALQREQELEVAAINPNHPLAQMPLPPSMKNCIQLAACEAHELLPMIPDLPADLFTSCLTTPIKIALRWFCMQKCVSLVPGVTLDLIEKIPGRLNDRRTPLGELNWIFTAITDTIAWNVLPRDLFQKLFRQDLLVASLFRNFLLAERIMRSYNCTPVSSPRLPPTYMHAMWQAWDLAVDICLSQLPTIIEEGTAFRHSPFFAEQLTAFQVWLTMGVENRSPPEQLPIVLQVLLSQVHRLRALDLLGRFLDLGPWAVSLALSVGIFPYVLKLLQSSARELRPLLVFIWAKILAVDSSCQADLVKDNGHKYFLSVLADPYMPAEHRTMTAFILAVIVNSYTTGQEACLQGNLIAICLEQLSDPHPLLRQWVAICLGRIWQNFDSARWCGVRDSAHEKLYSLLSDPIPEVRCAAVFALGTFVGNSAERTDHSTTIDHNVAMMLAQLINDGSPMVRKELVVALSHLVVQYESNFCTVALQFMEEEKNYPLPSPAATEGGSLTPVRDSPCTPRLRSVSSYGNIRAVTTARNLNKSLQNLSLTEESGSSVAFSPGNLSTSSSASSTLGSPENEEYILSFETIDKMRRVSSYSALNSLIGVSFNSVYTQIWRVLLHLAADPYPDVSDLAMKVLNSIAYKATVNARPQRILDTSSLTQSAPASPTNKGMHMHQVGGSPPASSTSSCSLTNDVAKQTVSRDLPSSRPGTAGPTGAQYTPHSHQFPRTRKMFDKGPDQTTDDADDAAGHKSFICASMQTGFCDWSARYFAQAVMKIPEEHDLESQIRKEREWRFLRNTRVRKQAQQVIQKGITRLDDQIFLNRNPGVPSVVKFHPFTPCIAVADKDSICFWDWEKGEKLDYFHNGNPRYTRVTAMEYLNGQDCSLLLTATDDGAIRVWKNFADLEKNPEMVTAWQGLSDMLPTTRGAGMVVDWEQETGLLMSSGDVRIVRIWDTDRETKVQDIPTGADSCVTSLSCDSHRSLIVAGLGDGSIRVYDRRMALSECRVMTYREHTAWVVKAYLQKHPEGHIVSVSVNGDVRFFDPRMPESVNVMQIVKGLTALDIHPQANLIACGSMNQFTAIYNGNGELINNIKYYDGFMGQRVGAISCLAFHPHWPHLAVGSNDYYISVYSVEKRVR

T1: Translationally controlled tumor protein (TCTP) (mouse (endogenous in AML12)) (UniProt P63028)
T1 sequence: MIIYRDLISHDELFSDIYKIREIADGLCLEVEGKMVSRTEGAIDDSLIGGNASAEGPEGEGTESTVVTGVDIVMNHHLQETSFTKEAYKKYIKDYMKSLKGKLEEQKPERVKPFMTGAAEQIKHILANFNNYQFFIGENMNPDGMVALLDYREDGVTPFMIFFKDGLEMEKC


Assays:
[1] = target: T1, Translationally controlled tumor protein (TCTP) (mouse (endogenous in AML12)); experiment: co-IP; lysate of AML12 cells treated with LPS-CM (modified RIPA buffer); immunoprecipitated with antibody against TCTP, mTOR or RICTOR overnight at 4 °C, protein A + G agarose 3 h; western blot
[2] = target: RICTOR (mouse (endogenous in AML12)) (UniProt Q6QI06); experiment: as above

binding [1] | binding [2] | Molecule
no binding |  | Raptor (from UniProt Q8K4Q0 1-1335)
binds |  | RICTOR (from UniProt Q6QI06 1-1708)
 | binds | Translationally controlled tumor protein (TCTP) (protein, UniProt P63028 1-172) MIIYRDLISHDELFSDIYKIREIADGLCLEVEGKMVSRTEGAIDDSLIGGNASAEGPEGEGTESTVVTGVDIVMNHHLQETSFTKEAYKKYIKDYMKSLKGKLEEQKPERVKPFMTGAAEQIKHILANFNNYQFFIGENMNPDGMVALLDYREDGVTPFMIFFKDGLEMEKC
